The match of structure and compound is tentative.
Target: human CCR6 (Homo sapiens, UniProt P51684)
Test: FLIPR assay (inhibition of CCL20-induced calcium signal)
Assay type: cell-based
Conditions: read-out: FLIPR IC50; HEK-293 cells expressing human CCR6; mean values where determined several times

Sequences of proteins named here, by UniProt entry; tags and fusion partners are left off.
UniProt P51684, whole entry: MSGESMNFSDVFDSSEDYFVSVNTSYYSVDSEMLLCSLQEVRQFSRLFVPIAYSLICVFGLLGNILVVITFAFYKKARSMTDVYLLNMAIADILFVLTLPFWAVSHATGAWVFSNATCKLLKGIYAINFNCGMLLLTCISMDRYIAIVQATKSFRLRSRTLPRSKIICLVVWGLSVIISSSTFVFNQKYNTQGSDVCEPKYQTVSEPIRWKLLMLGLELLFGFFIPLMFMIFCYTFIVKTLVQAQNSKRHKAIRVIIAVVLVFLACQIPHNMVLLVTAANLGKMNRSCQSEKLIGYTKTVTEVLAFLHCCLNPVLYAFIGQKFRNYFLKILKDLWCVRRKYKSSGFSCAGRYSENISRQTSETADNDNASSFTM

SMILES | IC50 [nM]
Cc1cncc(C(O)(c2ccc(OC(F)(F)F)cc2)C2(C)CN(C)C2)c1 (centres unmarked) | 138
CCOc1ccc(C(O)(c2ccc(OC(F)(F)F)cc2)C2(C)CN(C)C2)cn1 (centres unmarked) | 149
